This is an account of results in PMC10589265.

These are yes or no findings as the source states them, for the method shown. For some assays here: In cells and extracts the contact can be indirect. Some binding calls cover weakened binding; strength is not graded here. For some assays here: Where a sequence is shown, tags or fusion partners need not be part of it.

The target in experiment [1] is T1, METTL16 (endogenous, HGC-27 cells) (human (endogenous in HGC-27)) (UniProt Q86W50).
T1 sequence: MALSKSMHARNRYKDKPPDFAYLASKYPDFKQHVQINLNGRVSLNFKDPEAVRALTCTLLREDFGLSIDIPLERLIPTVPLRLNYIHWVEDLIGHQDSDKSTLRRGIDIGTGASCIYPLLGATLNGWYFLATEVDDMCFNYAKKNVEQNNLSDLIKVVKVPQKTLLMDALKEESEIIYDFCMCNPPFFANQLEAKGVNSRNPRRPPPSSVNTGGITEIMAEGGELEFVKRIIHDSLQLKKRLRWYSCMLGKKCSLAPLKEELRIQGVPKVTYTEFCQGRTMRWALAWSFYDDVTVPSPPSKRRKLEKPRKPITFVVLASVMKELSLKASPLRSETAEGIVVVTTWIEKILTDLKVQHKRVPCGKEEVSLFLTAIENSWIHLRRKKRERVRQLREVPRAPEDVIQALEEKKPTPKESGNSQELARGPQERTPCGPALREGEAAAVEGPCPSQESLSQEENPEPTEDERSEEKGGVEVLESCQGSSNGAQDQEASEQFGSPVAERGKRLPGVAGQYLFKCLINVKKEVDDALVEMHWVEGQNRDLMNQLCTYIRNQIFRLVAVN
The experiment in a line: co-IP; endogenous METTL16 in HGC-27 cells precipitated with anti-METTL16 antibody or IgG (mock IP); co-precipitated SIRT2 detected by western blot. (In general: In western blotting, separated proteins are transferred to a membrane and probed.)

The target of experiment [2] is T2, Recombinant His-tagged METTL16 (human) (UniProt Q86W50).
T2 sequence: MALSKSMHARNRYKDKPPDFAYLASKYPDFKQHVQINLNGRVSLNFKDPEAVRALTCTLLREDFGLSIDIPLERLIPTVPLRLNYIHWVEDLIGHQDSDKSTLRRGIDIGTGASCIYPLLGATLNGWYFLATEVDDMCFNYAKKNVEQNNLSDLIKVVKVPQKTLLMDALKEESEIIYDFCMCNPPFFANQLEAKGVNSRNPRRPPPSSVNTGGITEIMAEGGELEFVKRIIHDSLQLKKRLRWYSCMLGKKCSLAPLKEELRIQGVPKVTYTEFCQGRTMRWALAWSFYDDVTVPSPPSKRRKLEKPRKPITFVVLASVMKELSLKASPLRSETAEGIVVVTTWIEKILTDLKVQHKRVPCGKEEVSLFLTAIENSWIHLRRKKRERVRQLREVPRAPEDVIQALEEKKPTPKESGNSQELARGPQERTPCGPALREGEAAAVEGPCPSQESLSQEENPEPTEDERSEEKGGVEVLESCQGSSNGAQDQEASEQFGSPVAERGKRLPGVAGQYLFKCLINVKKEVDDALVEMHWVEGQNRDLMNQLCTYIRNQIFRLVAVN
The experiment is described as follows: pull-down; His-METTL16 on Ni-NTA beads incubated with GST-SIRT2 or GST at 4 °C (legend: 4 h; methods: overnight); beads washed five times; western blot; both purified.

B1: SIRT2 (endogenous, HGC-27 cells) (enzyme, UniProt Q8IXJ6 1-389)
chain: MAEPDPSHPLETQAGKVQEAQDSDSDSEGGAAGGEADMDFLRNLFSQTLSLGSQKERLLDELTLEGVARYMQSERCRRVICLVGAGISTSAGIPDFRSPSTGLYDNLEKYHLPYPEAIFEISYFKKHPEPFFALAKELYPGQFKPTICHYFMRLLKDKGLLLRCYTQNIDTLERIAGLEQEDLVEAHGTFYTSHCVSASCRHEYPLSWMKEKIFSEVTPKCEDCQSLVKPDIVFFGESLPARFFSCMQSDFLKVDLLLVMGTSLQVQPFASLISKAPLSTPRLLINKEKAGQSDPFLGMIMGLGGGMDFDSKKAYRDVAWLGECDQGCLALAELLGWKKELEDLVRREHASIDAQSGAGVPNPSTSASPKKSPPPAKDEARTTEREKPQ
Consider B1, for which, in experiment [1], the binding result is “binds”.

B2: GST-SIRT2 (enzyme, UniProt Q8IXJ6 1-389)
chain: MAEPDPSHPLETQAGKVQEAQDSDSDSEGGAAGGEADMDFLRNLFSQTLSLGSQKERLLDELTLEGVARYMQSERCRRVICLVGAGISTSAGIPDFRSPSTGLYDNLEKYHLPYPEAIFEISYFKKHPEPFFALAKELYPGQFKPTICHYFMRLLKDKGLLLRCYTQNIDTLERIAGLEQEDLVEAHGTFYTSHCVSASCRHEYPLSWMKEKIFSEVTPKCEDCQSLVKPDIVFFGESLPARFFSCMQSDFLKVDLLLVMGTSLQVQPFASLISKAPLSTPRLLINKEKAGQSDPFLGMIMGLGGGMDFDSKKAYRDVAWLGECDQGCLALAELLGWKKELEDLVRREHASIDAQSGAGVPNPSTSASPKKSPPPAKDEARTTEREKPQ
For B2, the binding result in experiment [2] is recorded as “binds”.
